# Data published in patent US10724034B2, “Genetic encoding of chemical post-translational modification for phage-displayed libraries” (THE GOVERNORS OF THE UNIVERSITY OF ALBERTA, priority 2014, dated 2020).
# By UniProt entry, the sequences of proteins in these tests, tags left out.
# UniProt P00921, whole entry: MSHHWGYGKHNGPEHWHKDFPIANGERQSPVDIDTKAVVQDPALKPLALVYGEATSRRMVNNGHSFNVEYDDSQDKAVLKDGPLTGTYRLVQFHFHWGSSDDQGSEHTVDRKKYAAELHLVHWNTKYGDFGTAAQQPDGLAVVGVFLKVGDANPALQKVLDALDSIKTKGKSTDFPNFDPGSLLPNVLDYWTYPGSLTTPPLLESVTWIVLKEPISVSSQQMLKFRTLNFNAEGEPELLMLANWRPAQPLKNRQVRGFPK
# Not every detail of the peptide structures is certain; ends, links or a residue may be inferred. Peptide text beside a SMILES is read from it. * marks the point of attachment. X1 = NS(=O)(=O)c1ccc(CON=CC(=O)*)cc1
# Target: T1, carbonic anhydrase (Bos taurus, UniProt P00921)
# T1 construct: purchased Sigma-Aldrich Canada (Oakville, ON)
# Assay: Isothermal titration calorimetry (ITC) binding of sulfonamide-peptides to carbonic anhydrase
# Design: species or system bovine
# Conditions: FIG. 9
smiles,measurement,value
CC[C@H](C)[C@H](NC(=O)[C@H](Cc1c[nH]c2ccccc12)NC(=O)C=NOCc1ccc(S(N)(=O)=O)cc1)C(=O)N[C@H](C(=O)N1CCC[C@H]1C(N)=O)C(C)C [SA-WIVP] (X1-WIVP-NH2; C-terminus assumed),Fold stronger affinity than control peptide SA-GGGG,30 fold
